Test results taken from US20240285784A1 (FUNDACIÓ INSTITUT DE RECERCA BIOMÈDICA (IRB BARCELONA), priority 2020, published 2024).

Test: general procedure: Fmoc solid-phase peptide synthesis; H-Rink amide Protide resin (0.56 mmol/g); manual: Rink amide MBHA or 2-chlorotrityl chloride resin; Cl-TCP(Cl) ProTide r; DIC/Oxyma; DIC/HOBt; PyBOP/HOAt/DIEA
Details: whole synthesis, synthesis and purification, scale of the general procedure 100 umol (manual), 500 umol / 0.5 mmol (microwave automated)

| Substance | isolated yield [%] |
| --- | --- |
| Hexynoic-TTDS-Dap-Lys-Ala-Pro-Glu-Thr-Ala-Leu-Asp-NH2 (hexynoic-TTDS-SEQ ID NO: 7) with a amide bond between Dap side-chain amino group and Asp side-chain carboxilic acid | 7.5 |
| Hexynoic-TTDS-Dap-Lys-Ala-Pro-Glu-Thr-Ala-Leu-Asp-NH2 (hexynoic-TTDS-SEQ ID NO: 14) | 9 |
